Results deposited as PubChem BioAssay AID652259 (Drosophila RNAi Screening Center, 2013)
The screen tested about 22,000 reagents; below is an unselected part of those with a known target gene and a result. Of all reagents, 233 (1.1%) are marked active. 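Light values are raw, unnormalised plate reads; the ratio scores behind the reporter calls were not deposited.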 A number with no mark means an inactive call. Names joined by + are all predicted targets of the reagent. The record does not give: the amount of reagent, the time to read-out, the dose of the treatment.

Aim: 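Identify new Wingless signalling regulators in fly cells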 (primary screen)
Cells: Drosophila clone 8 imaginal disc epithelial cells
Knock-down reagent: long dsRNA against Drosophila genes
Challenge: pathway stimulated by co-transfected Wingless expression plasmid
Read-out: 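Firefly luciferase from a tcf-site Wingless reporter, measured alongside co-transfected Renilla luciferase that tracks transfection; pathway stimulated by a Wingless plasmid; the firefly-to-Renilla ratio is not deposited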
Reading the numbers: firefly reporter light: higher = more Wg reporter light, before normalisation; Renilla control light: higher = more transfected or surviving cells
Active means: 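Strong candidates differ from their plate mean by at least two out of four per-plate statistical tests; weak candidates meet just one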
Meaning of the calls: active = candidate regulator (raises or lowers reporter); inactive = not a candidate

Against CG14034 [DRSC02359], the entry reads firefly reporter light, replicate 1 = 1883; firefly reporter light, replicate 2 = 5362; Renilla control light, replicate 1 = 904; Renilla control light, replicate 2 = 1936.
For CG4287 [DRSC15559], the entry reads firefly reporter light, replicate 1 = 1831; firefly reporter light, replicate 2 = 5588; Renilla control light, replicate 1 = 501; Renilla control light, replicate 2 = 2170.
With knock-down of CG7601 [DRSC14131], the record shows firefly reporter light, replicate 1 = 3612; firefly reporter light, replicate 2 = 4308; Renilla control light, replicate 1 = 1443; Renilla control light, replicate 2 = 1872.
Or43b [DRSC07486] showed firefly reporter light, replicate 1 = 2632; firefly reporter light, replicate 2 = 6688; Renilla control light, replicate 1 = 793; Renilla control light, replicate 2 = 2085.
Tbc1d8-9 [DRSC11820] gave firefly reporter light, replicate 1 = 5137; Renilla control light, replicate 1 = 915.
Silencing of Nepl8 [DRSC02759] gave: firefly reporter light, replicate 1 = 3940; firefly reporter light, replicate 2 = 5516; Renilla control light, replicate 1 = 1447; Renilla control light, replicate 2 = 2539.
Pi3K59F [DRSC04640] showed firefly reporter light, replicate 1 = 6308; Renilla control light, replicate 1 = 1561.
With knock-down of CG14269 [DRSC17912], the record shows firefly reporter light, replicate 1 = 12256; Renilla control light, replicate 1 = 12112.
For CG1317 [DRSC08305], the entry reads firefly reporter light, replicate 1 = 16875; Renilla control light, replicate 1 = 4007.
Depletion of tst + CG10375 [DRSC14237] came out at: firefly reporter light, replicate 1 = 2099; firefly reporter light, replicate 2 = 6573; Renilla control light, replicate 1 = 950; Renilla control light, replicate 2 = 1305.
After knock-down of CG14232 [DRSC19588], the record shows firefly reporter light, replicate 1 = 3440; firefly reporter light, replicate 2 = 6100; Renilla control light, replicate 1 = 1408; Renilla control light, replicate 2 = 2266.
With knock-down of Exo84 [DRSC15965] the results were firefly reporter light, replicate 1 = 15033; Renilla control light, replicate 1 = 10656.
With knock-down of CG15879 [DRSC08487], the record shows firefly reporter light, replicate 1 = 6854; Renilla control light, replicate 1 = 3506.
Against CG31415 [DRSC22409], the entry reads firefly reporter light, replicate 1 = 5.48e5; firefly reporter light, replicate 2 = 5.48e5; Renilla control light, replicate 1 = 1.97e5; Renilla control light, replicate 2 = 1.80e5.
For CG14710 [DRSC14933] the deposit lists firefly reporter light, replicate 1 = 6213; Renilla control light, replicate 1 = 2260.
Against CG34199 [DRSC05867], the values are firefly reporter light, replicate 1 = 15890; Renilla control light, replicate 1 = 9399.
Silencing of CG2938 [DRSC18243] came out at: firefly reporter light, replicate 1 = 3766; firefly reporter light, replicate 2 = 10256; Renilla control light, replicate 1 = 1891; Renilla control light, replicate 2 = 3376.
Against RNF220 [DRSC15652], the entry reads firefly reporter light, replicate 1 = 4213; firefly reporter light, replicate 2 = 8739; Renilla control light, replicate 1 = 1449; Renilla control light, replicate 2 = 2488.
Depletion of BBS1 [DRSC10196] came out at: firefly reporter light, replicate 1 = 2394; Renilla control light, replicate 1 = 832.
Bfc [DRSC08623] scored firefly reporter light, replicate 1 = 9477; Renilla control light, replicate 1 = 4320.
After knock-down of CG30259 [DRSC04164], the record shows firefly reporter light, replicate 1 = 2779; firefly reporter light, replicate 2 = 10876; Renilla control light, replicate 1 = 741; Renilla control light, replicate 2 = 3143.
For CG30259 [DRSC04165], the entry reads firefly reporter light, replicate 1 = 3847; firefly reporter light, replicate 2 = 6579; Renilla control light, replicate 1 = 860; Renilla control light, replicate 2 = 2828.
Depletion of CG31788 [DRSC01630] gave: firefly reporter light, replicate 1 = 27890; Renilla control light, replicate 1 = 12441.
Silencing of pdgy [DRSC19064] gave: firefly reporter light, replicate 1 = 4566; Renilla control light, replicate 1 = 1424.
Against pdgy [DRSC19341], the values are firefly reporter light, replicate 1 = 3165; firefly reporter light, replicate 2 = 9181; Renilla control light, replicate 1 = 1308; Renilla control light, replicate 2 = 4016.
Knock-down of CG10834 [DRSC03693] gave: firefly reporter light, replicate 1 = 2291; firefly reporter light, replicate 2 = 5853; Renilla control light, replicate 1 = 777; Renilla control light, replicate 2 = 2242.
Knock-down of CG1635 [DRSC15131] came out at: firefly reporter light, replicate 1 = 1984; firefly reporter light, replicate 2 = 6722; Renilla control light, replicate 1 = 818; Renilla control light, replicate 2 = 2112.
For CG3999 [DRSC15534], the values are firefly reporter light, replicate 1 = 15040; Renilla control light, replicate 1 = 3117.
After knock-down of Diedel3 [DRSC19544], the screen gave firefly reporter light, replicate 1 = 12370; Renilla control light, replicate 1 = 9856.
After knock-down of clos [DRSC06240], the screen gave firefly reporter light, replicate 1 = 3276; firefly reporter light, replicate 2 = 7755; Renilla control light, replicate 1 = 1130; Renilla control light, replicate 2 = 2746.
With knock-down of clos [DRSC06241], the screen gave firefly reporter light, replicate 1 = 4450; firefly reporter light, replicate 2 = 11155; Renilla control light, replicate 1 = 1212; Renilla control light, replicate 2 = 4141.
After knock-down of clos [DRSC06778], the screen gave firefly reporter light, replicate 1 = 2323; firefly reporter light, replicate 2 = 8247; Renilla control light, replicate 1 = 867; Renilla control light, replicate 2 = 2624.
Against clos [DRSC21857] the deposit lists firefly reporter light, replicate 1 = 4.42e5; firefly reporter light, replicate 2 = 3.99e5; Renilla control light, replicate 1 = 1.51e5; Renilla control light, replicate 2 = 1.65e5.
Silencing of clos [DRSC22942] came out at: firefly reporter light, replicate 1 = 4.88e5; firefly reporter light, replicate 2 = 5.89e5; Renilla control light, replicate 1 = 2.65e5; Renilla control light, replicate 2 = 2.13e5.

4 entries from above, reduced to “Renilla control light, replicate 1”:
CG15879 [DRSC08487] = 3506
CG31415 [DRSC22409] = 1.97e5
CG14710 [DRSC14933] = 2260
CG34199 [DRSC05867] = 9399
